Experimental data reported in US7935673B2, “Polyphenol glycoside isolated from acerola” (Nichirei Biosciences, Inc., priority 2004, dated 2011).
At least one structure is not confirmed: it was looked up by name or label, or the drawing left a doubt.

Biological target: α-glucosidase (yeast-derived reagent)
Experiment: α-Glucosidase inhibitory activity (maltose substrate)
Assay type: biochemical
Details: 37° C., 60 minutes, read-out: 50% α-glucosidase inhibition concentration
Procedure: A yeast-derived reagent (Wako Pure Chemical) was used as an α-glucosidase. The reagent was dissolved in 10 mM phosphate buffer (pH 7.0) containing 0.2% bovine serum albumin.
In the experiment, 0.25 mL of 100 mM phosphate buffer, 0.25 mL of each sample solution at a different concentration, and 0.125 mL of a maltose aqueous solution serving as a substrate at a concentration of 10 mg/mL were mixed, followed by heating at 37° C. for 5 minutes. Then, 0.125 mL of an α-glucosidase solution was added thereto, followed by enzyme treatment at 37° C. for 60 minutes. As a reaction termination solution, 0.5 mL of a 0.2 M sodium carbonate solution was added to each resultant, followed by mixing. The glucose concentration of each reaction solution was measured using Glucose CII-Test Wako (Wako Pure Chemical). An inhibition rate (%) was calculated based on a proportion of the glucose concentration of a solution to which a sample had been added to the glucose concentration of a blank solution to which no sample had been added. Then, the concentration of each sample at which 50% enzyme activity was inhibited was calculated based on such inhibition rate derived from the concentration of the sample, followed by comparison.

C[C@@H]1O[C@@H](Oc2c(-c3ccc(O)c(O)c3)oc3cc(O)cc(O)c3c2=O)[C@H](O)[C@H](O)[C@H]1O [Quercitrin, quercetin-3-rhamnoside, reference compound]
IC50: 2530 µM
